US20120093811A1
Results are given in words; binding and its absence hold for the method and conditions named. Some entries that bind do so weakly or less than the wild type.

Amino acid sequences for entries named in this document (tags omitted). A change or cut given only in a name is not applied to a line headed by its entry.
UniProt O43915: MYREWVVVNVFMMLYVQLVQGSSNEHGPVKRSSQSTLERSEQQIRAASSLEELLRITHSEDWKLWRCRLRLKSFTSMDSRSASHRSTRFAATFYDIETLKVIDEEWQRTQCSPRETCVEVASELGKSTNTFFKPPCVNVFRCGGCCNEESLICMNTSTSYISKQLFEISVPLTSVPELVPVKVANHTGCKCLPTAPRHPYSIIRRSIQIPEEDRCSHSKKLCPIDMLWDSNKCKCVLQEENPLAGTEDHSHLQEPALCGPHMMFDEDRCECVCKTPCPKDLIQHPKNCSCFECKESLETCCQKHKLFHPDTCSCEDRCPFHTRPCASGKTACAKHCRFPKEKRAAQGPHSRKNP

Columns and labels:
[1] = target: Source 1 VEGF-D, mature dimeric recombinant human VEGF-D (CSIRO) (human) (UniProt O43915); experiment: KD plotted against average IC50 of the VEGFR-2-Ba/F3 bioassay. The sheet names neither the KD method nor the VEGF-D form; paragraph 444 says 'KD of Source 1 VEGF-D' and Table 12 'Dimer KD'
[2] = target: Source 2 VEGF-D, purified recombinant human VEGF-D monomer (R&D Systems, Catalog Number 622-VD/CF) (human) (UniProt O43915); experiment: SPR (BIAcore)
[3] = target: Source 1 VEGF-D, mature dimeric recombinant human VEGF-D (CSIRO) (human) (UniProt O43915); experiment: SPR (BIAcore), Protocols A and B, IgG on Source 1 VEGF-D dimer

| Binder | binding [3] | other results |
| --- | --- | --- |
| humanized IgG antibody derived from clone F61 (antibody, V domains shown) VH: QVQLVQSGAEVKQPGASVKVSCKASGYTFTGYNMYWVRQAPGQGLEWMGYIDPYNGDTTYNQKFKGRVTMTTDTSTSTAYMKLRSLRSDDTAVYYCARTSYYGGMDYWGRGTLVTVAS VL: DIVMTQTPLSSPVTLGQPASISCRSSQSLVHSNGNTYLHWLQQRPGQPPRLLIYKVSNRFSGVPDRFSGSGAGTDFTLKISRVEAEDVGVYYCSQSTHVPRTFGQGTKLEIKR | – | binding [1]: binds |
| humanized IgG antibody derived from clone AW61 (antibody, V domains shown) VH: QVQLVQSGAEVKQPGASVKVSCKASGYTFTGYNMYWVRQAPGQGLEWMGYIDPYNGDTTYNQKFKGRATMTTDTSTSTAYMKLRSLRSDDTAVYYCARTSYYGGMDYWGRGTLVTVAS VL: DIVMTQTPLSSPVTLGQPASISCRSSQSLVHSNGNTYLHWLQQRPGQPPRLLIYKVSNRFSGVPDRFSGSGAGTDFTLKISRVEAEDVGVYYCSQSTHVPRTFGQGTKLEIKR | – | binding [1]: binds |
| Ig-1A, humanized IgG reformatted from scFv 1A (antibody, V domains shown) VH: QVQLVQSGAEVKQPGASVKVSCKASGYTFTGYNMYWVRQAPGQGLEWMGYIDPYNGDTTYNQKFKGRVTMTTDTSTSTAYMELRSLRSDDTAVYYCARTSYYGGMDYWGRGTLVTVAS VL: DIVMTQTPLSSPVTLGQPASISCRSSQSLVHSNGNTYLHWLQQRPGQPPRLLIYKVSNRFSGVPDRFSGSGAGTDFTLKISRVEAEDVGVYYCSQSTHVPRTFGQGTKLEIKR | – | binding [2]: binds |
| humanized IgG antibody derived from clone HU75 (antibody, V domains shown) VH: QVQLVQSGAEVKQPGASVKVSCKASGYTFTGYNMYWVRQAPGQGLEWMGYIDPYNGDTTYNQKFKGRVTMTTDTSTSTAYMKLRSLRSDDTAVYYCARTSYYGGMDYWGRGTLVTVAS VL: DIVMTQTPLSGPVTLGQPASISCRSSQSLVHSNGNTYLHWLQQRPGQPPRLLIYKVSNRFSGVPDRFSGSGAGTDFTLKISRVEAEDVGVYYCSQSTHVPRTFGRGTKLEIKR | binds | – |
| humanized IgG antibody derived from clone HH69 (antibody, V domains shown) VH: QVQLVQSGAKVKQPGASVKASCKASGYTFTGYNMYWVRQAPGQGLEWMGYIDPYSGDTTYNQKFKGRVTMTTDTSTSTAYMELRSLRSDDTAVYYCARTSYYGGMDYWGRGTLVTVAS VL: DIVMTQTPLSGPVTLGQPASISCRSSQSLVHSNGNTYLHWLQQRPGQPPRLLIYKVSNRFSGVPDRFSGSGAGTDFTLKISRVEAEDVGVYYCSQSTHVPRTFGRGTKLEIKR | binds | – |
| humanized IgG antibody derived from clone HW78 (antibody, V domains shown) VH: QVQLVQSGAEVKQPGASVKVSCKARGYTFTGYNMYWVRQAPGQGLEWMGYIDPYNGDTTYNQKFKGRVTMTTDTSTGTAYMKLRSLRSDDTAVYYCARTSYYGGMDYWGRGTLVTVAS VL: DIVMTQTPLSSPVTLGQPASISCRSSQSLVHSNGNTYLHWLQQRPGQPPRLLIYKVSNRFSGVPDRFSGSGAGTDFTLKISRVEAEDVGVYYCSQSTHVPRTFGQGTKLEIKR | binds | – |
| humanized IgG antibody derived from clone HH41 (antibody, V domains shown) VH: QVQLVQSGAEVKQPGASVKVSCKASGYTFTGYNMYWVRQAPGQGLEWMGYIDPYNGDTTYNQKFKGRVTMTTDTSTSTAYMKLRSLRSDDTAVYYCARTSYYGGMDYWGRGTLVTVAS VL: DIVMTQTPLSSPVTLGQPASISCRSSQSLVHGNGNTYLHWLQQRPGQPPRLLIYKVSNRFSGVPDRFSGSGAGTDFTLKISRVEAEDVGVYYCSQSTHVPRTFGQGTKLEIKR | binds | – |
| humanized IgG antibody derived from clone DI26 (antibody, V domains shown) VH: QVQLVQSGAKVKQPGASVKASCKASGYTFTGYNMYWVRQAPGQGLEWMGYIDPYSGDTTYNQKFKGRVTMTTDTSTSTAYMELRSLRSDDTAVYYCARTSYYGGMDYWGRGTLVTVAS VL: DIVMTQTPLSSPVTLGQPASISCRSSQSLVHSNGNTYLHWLQQRPGQPPRLLIYKVSNRFSGVPDRFSGSGAGTDFTLKISRVEAEDVGVYYCSQSTHVPRTFGQGTKLEIKR | binds | – |
